Data as given in PubChem BioAssay AID504744 (Drosophila RNAi Screening Center, 2011)
Screen: 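Identify dsRNAs that increase or decrease phospho-dAkt after insulin treatment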 (primary screen). System: Drosophila Kc167 cells. Reagents: long dsRNA against Drosophila genes, 250 ng dsRNA per well of a 384-well plate. Time to read-out: 3 days of knock-down, then overnight serum-free starvation before stimulation. Challenge: bovine insulin at 387 nM for 10 minutes after 12 h without serum. Measured: 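Per-well phospho-dAkt level from an in-cell fluorescent antibody stain, divided by a DNA-dye signal; log2 residuals turned into z-scores that take cell number into account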. Hit rule: 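Under insulin, a gene counts as a hit if the average z-score of two replicates lies above 2.5 or below -2.5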.
The screen tested about 23,000 reagents; this is a random part of those with a known target gene and a result. In the full data, 98 (0.43%) are marked active. 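Only hit calls are given; the phospho-dAkt signals, z-scores and hit direction were not deposited.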 Reagents against one gene are numbered here. Names joined by + are all predicted targets of the reagent.

Knock-down of CG31760 came out at: inactive.
ena (enabled) #1 gave inactive.
After knock-down of ena (enabled) #2, the record shows inactive.
With knock-down of Dhc16F (Dynein heavy chain at 16F), the record shows inactive.
For CG34357 #1 the deposit lists inactive.
After knock-down of CG34357 #2, the record shows inactive.
CG34357 #3 showed inactive.
Swim (Secreted Wg-interacting molecule) showed inactive.
Papss (PAPS synthetase) gave inactive.
Against CG15296, the entry reads inactive.
CG33752 gave inactive.
CG9577 scored inactive.
Mkp3 (Mitogen-activated protein kinase phosphatase 3) #1 scored inactive.
For Mkp3 (Mitogen-activated protein kinase phosphatase 3) #2 the deposit lists inactive.
DEF8 (differentially expressed in FDCP 8 homolog) showed inactive.
bsh (brain-specific homeobox) gave inactive.
CG31086 + CG31323 scored inactive.
Silencing of CG9095 resulted in: inactive.
Against Ldh (Lactate dehydrogenase) the deposit lists inactive.
Against CG17239, the values are inactive.
Depletion of CG3857 came out at: inactive.
Silencing of CG4360 resulted in: inactive.
With knock-down of Nach, the record shows inactive.
Silencing of CG14402 resulted in: inactive.
With knock-down of nxf2 (nuclear RNA export factor 2), the screen gave inactive.
Depletion of HDAC11 (Histone deacetylase 11) came out at: inactive.
After knock-down of trol (terribly reduced optic lobes) #1, the record shows inactive.
For trol (terribly reduced optic lobes) #2, the values are inactive.
Against trol (terribly reduced optic lobes) #3 the deposit lists inactive.
trol (terribly reduced optic lobes) #4 scored inactive.
CG13047 gave inactive.
Against Rbpn-5 (Rabaptin-5) the deposit lists inactive.
After knock-down of CR32028 (retired record) the results were inactive.
Depletion of dgt3 (dim gamma-tubulin 3) resulted in: inactive.
After knock-down of CSN7 (COP9 signalosome subunit 7) #1 the results were inactive.
Depletion of CSN7 (COP9 signalosome subunit 7) #2 resulted in: inactive.
Depletion of Arfrp1 (ADP-ribosylation factor related protein 1) gave: active.
Mlc1 (Myosin alkali light chain 1) scored inactive.
Silencing of Qsox3 (Quiescin sulfhydryl oxidase 3) resulted in: inactive.
With knock-down of CG4259 the results were inactive.
CG1092 gave inactive.
With knock-down of RunxA (Runt related A) #1, the record shows inactive.
Against RunxA (Runt related A) #2, the entry reads inactive.
Against RunxA (Runt related A) #3, the values are inactive.
Knock-down of RunxA (Runt related A) #4 came out at: inactive.
With knock-down of Ubc4 (Ubiquitin conjugating enzyme 4), the screen gave inactive.
Against D19A, the entry reads active.
After knock-down of RpL3 + CG6693, the record shows inactive.
CG9643 scored inactive.
ss (spineless) scored inactive.
Knock-down of p38c (p38c MAP kinase) gave: inactive.
After knock-down of CG30428, the record shows inactive.
primo-2 + primo-1 scored inactive.
CG4582 gave inactive.
GILT2 (Gamma-interferon-inducible lysosomal thiol reductase 2) scored inactive.
Cf2 (Chorion factor 2) showed inactive.
CG7550 gave inactive.
Silencing of CG6310 resulted in: inactive.
With knock-down of CG31871 #1, the record shows inactive.
For CG31871 #2 the deposit lists inactive.
brat (brain tumor) scored inactive.
Polr1E (RNA polymerase I subunit E) #1 scored inactive.
Against Polr1E (RNA polymerase I subunit E) #2, the values are inactive.
CG14448 showed inactive.
Depletion of Aasdh (Aminoadipate-semialdehyde dehydrogenase) came out at: inactive.
Knock-down of RpS9 (Ribosomal protein S9) gave: inactive.
For CG31106, the values are inactive.
Against CG32050 (retired record), the values are inactive.
For CG10853 the deposit lists inactive.
With knock-down of CG18808, the record shows inactive.
Knock-down of noi (noisette) resulted in: inactive.
With knock-down of CG42788 #1, the screen gave inactive.
Knock-down of CG42788 #2 gave: inactive.
Against CG42788 #3, the entry reads inactive.

Laid out differently: results already given.
target | reagent | activity call
Arfrp1 (ADP-ribosylation factor related protein 1) | 1 | active
Mlc1 (Myosin alkali light chain 1) | 1 | inactive
Qsox3 (Quiescin sulfhydryl oxidase 3) | 1 | inactive
CG4259 | 1 | inactive
CG1092 | 1 | inactive
RunxA (Runt related A) | 1 | inactive
RunxA (Runt related A) | 2 | inactive
RunxA (Runt related A) | 3 | inactive
RunxA (Runt related A) | 4 | inactive
Ubc4 (Ubiquitin conjugating enzyme 4) | 1 | inactive
D19A | 1 | active
RpL3 + CG6693 | 1 | inactive
